Assay results from patent publication US4855497A, “Novel diamine derivatives” (Chugai Seiyaku Kabushiki Kaisha, priority 1985, dated 1989).

System: Acetylcholine
Test: Activity against acetylcholine (II): inhibition of acetylcholine-induced saliva excretion
Assay type: in vivo, Beagle dogs
Conditions: dose 1 (g), intra-arterially, 1 min before acetylcholine
Method: Activity Against Acetylcholine (II)
Beagle dogs were anesthetized by intravenous administration of pentobarbital (35 mg/kg). The following experiment was conducted in accordance with the method of Sato et al. (Tohoku J. Exp. Med., 108, 377-388, 1982). The left lower jaw of each animal was incised to identify the submandibular gland, the duct through which saliva was excreted from that gland, and the artery nourishing the same gland. A polyethylene tube was first inserted into the excretory duct. Then, a cannula was inserted into the submandibular gland controlling artery and said gland was perfused with the arterial blood drawn from the femoral artery. The tube from the duct was connected to a drop counter and the number of drops of excreted saliva was recorded. The excretion of saliva was induced by intra-arterial administration of acetylcholine.
One minute before the acetylcholine administration, […] (0.1 ml) of a selected compound was administered intra-arterially and its ability to inhibit saliva excretion was examined.

CN1[C@@H]2CC[C@H]1C[C@@H](OC(=O)C(CO)c1ccccc1)C2 (stereo partly shown) [Atropine]
Percent inhibition (saliva excretion): 42.9%
